Source: publication doi:10.1101/2024.05.31.596772
Where a chain is given by its changes, count along the chain named. These are yes or no findings as the source states them, for the method shown. Binding seen in cells or lysates may run through a third protein. Some results given as binding are weak or reduced against the parent protein; the word gives no strength.

Chains of the proteins cited; added tags and fusions are not shown.
UniProt Q5T5Y3: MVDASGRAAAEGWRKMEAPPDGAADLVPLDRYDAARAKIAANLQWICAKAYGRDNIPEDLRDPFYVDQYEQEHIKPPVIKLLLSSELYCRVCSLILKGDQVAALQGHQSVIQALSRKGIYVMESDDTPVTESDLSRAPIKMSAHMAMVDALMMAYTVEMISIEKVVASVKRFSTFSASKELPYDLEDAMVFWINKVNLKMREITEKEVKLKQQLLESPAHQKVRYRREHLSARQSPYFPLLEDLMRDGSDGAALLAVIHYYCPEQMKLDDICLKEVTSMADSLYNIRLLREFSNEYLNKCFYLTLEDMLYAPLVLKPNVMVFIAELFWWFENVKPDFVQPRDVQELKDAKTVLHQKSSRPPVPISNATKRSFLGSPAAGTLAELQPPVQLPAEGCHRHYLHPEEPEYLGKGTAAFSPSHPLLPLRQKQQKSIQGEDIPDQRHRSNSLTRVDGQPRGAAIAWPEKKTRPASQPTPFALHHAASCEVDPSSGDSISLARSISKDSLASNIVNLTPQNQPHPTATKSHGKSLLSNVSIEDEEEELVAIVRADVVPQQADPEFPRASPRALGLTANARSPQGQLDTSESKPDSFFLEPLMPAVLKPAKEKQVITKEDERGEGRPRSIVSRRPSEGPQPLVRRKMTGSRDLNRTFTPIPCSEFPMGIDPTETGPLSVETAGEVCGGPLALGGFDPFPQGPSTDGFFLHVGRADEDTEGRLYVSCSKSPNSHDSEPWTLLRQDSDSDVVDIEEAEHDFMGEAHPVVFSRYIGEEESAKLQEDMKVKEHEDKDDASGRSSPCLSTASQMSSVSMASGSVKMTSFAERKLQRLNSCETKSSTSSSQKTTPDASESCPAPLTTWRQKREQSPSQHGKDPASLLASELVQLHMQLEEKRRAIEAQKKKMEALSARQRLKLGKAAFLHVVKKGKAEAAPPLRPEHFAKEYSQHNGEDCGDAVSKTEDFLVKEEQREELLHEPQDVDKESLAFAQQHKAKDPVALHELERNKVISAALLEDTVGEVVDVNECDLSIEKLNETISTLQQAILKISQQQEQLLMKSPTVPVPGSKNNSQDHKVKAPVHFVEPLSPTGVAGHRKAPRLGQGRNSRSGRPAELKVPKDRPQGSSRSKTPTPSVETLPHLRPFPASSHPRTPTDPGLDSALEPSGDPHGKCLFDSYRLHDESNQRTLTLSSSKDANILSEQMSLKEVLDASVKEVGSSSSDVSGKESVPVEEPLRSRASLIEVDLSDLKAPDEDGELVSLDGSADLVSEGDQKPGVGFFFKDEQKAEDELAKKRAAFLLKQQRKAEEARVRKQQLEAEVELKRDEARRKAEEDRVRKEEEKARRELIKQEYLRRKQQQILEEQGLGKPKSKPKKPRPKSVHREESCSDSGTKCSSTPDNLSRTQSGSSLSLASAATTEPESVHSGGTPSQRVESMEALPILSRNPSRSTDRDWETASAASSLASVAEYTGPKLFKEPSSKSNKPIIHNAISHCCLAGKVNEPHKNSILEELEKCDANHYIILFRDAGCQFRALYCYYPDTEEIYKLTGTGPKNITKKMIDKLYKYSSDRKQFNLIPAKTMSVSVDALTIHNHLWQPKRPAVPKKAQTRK

Key:
[1] = target: CAMSAP1 (UniProt Q5T5Y3); experiment: co-IP + SEC-MALS
[2] = target: CAMSAP3 944F (UniProt Q80VC9); experiment: co-IP
[3] = target: CAMSAP3 944F LL2AA (UniProt Q80VC9); experiment: co-IP
[4] = target: CAMSAP2 (UniProt Q08AD1); experiment: co-IP + SEC-MALS

For CAMSAP1 (from UniProt Q5T5Y3 1-1602), the binding [1] was “binds”.

B1: CAMSAP3 944F (domain or fragment, UniProt Q80VC9 944-1252)
chain: AFTTPVVASAAPVATLAPTTRAMAPAEEEVGPRRGDFTRLEYERRAQLKLMDDLDKVLRPRASGTGGPGRGGRRATRPRSGCCDDSALARSPARGLLGSRLSKVYSQSTLSLSTVANEAPNNLGVKRPTSRAPSPSGLMSPSRLPGSRERDWENGSNASSPASVPEYTGPRLYKEPSAKSNKFIIHNALSHCCLAGKVNEPQKNRILEEIEKSKANHFLILFRDSSCQFRALYTLSGETEELSRLAGYGPRTVTPAMVEGIYKYNSDRKRFTQIPAKTMSMSVDAFTIQGHLWQSKKPTTPKKGGGTPK
For B1, the binding [2] was “binds”.

B2: CAMSAP3 944F LL2AA (domain or fragment, UniProt Q80VC9 944-1252)
chain: B1 chain with L50A, L54A
With B2 the binding [3] was “binds”.

B3: CAMSAP2 (protein, UniProt Q08AD1 1-1489)
chain: MGDAADPREMRKTFIVPAIKPFDHYDFSRAKIACNLAWLVAKAFGTENVPEELQEPFYTDQYDQEHIKPPVVNLLLSAELYCRAGSLILKSDAAKPLLGHDAVIQALAQKGLYVTDQEKLVTERDLHKKPIQMSAHLAMIDTLMMAYTVEMVSIEKVIACAQQYSAFFQATDLPYDIEDAVMYWINKVNEHLKDIMEQEQKLKEHHTVEAPGGQKSPSKWFWKLVPARYRKEQTLLKQLPCIPLVENLLKDGTDGCALAALIHFYCPDVVRLEDICLKETMSLADSLYNLQLIQEFCQEYLNQCCHFTLEDMLYAASSIKSNYLVFMAELFWWFEVVKPSFVQPRVVRPQGAEPVKDMPSIPVLNAAKRNVLDSSSDFPSSGEGATFTQSHHHLPSRYSRPQAHSSASGGIRRSSSMSYVDGFIGTWPKEKRSSVHGVSFDISFDKEDSVQRSTPNRGITRSISNEGLTLNNSHVSKHIRKNLSFKPINGEEEAESIEEELNIDSHSDLKSCVPLNTNELNSNENIHYKLPNGALQNRILLDEFGNQIETPSIEEALQIIHDTEKSPHTPQPDQIANGFFLHSQEMSILNSNIKLNQSSPDNVTDTKGALSPITDNTEVDTGIHVPSEDIPETMDEDSSLRDYTVSLDSDMDDASKFLQDYDIRTGNTREALSPCPSTVSTKSQPGSSASSSSGVKMTSFAEQKFRKLNHTDGKSSGSSSQKTTPEGSELNIPHVVAWAQIPEETGLPQGRDTTQLLASEMVHLRMKLEEKRRAIEAQKKKMEAAFTKQRQKMGRTAFLTVVKKKGDGISPLREEAAGAEDEKVYTDRAKEKESQKTDGQRSKSLADIKESMENPQAKWLKSPTTPIDPEKQWNLASPSEETLNEGEILEYTKSIEKLNSSLHFLQQEMQRLSLQQEMLMQMREQQSWVISPPQPSPQKQIRDFKPSKQAGLSSAIAPFSSDSPRPTHPSPQSSNRKSASFSVKSQRTPRPNELKITPLNRTLTPPRSVDSLPRLRRFSPSQVPIQTRSFVCFGDDGEPQLKESKPKEEVKKEELESKGTLEQRGHNPEEKEIKPFESTVSEVLSLPVTETVCLTPNEDQLNQPTEPPPKPVFPPTAPKNVNLIEVSLSDLKPPEKADVPVEKYDGESDKEQFDDDQKVCCGFFFKDDQKAENDMAMKRAALLEKRLRREKETQLRKQQLEAEMEHKKEETRRKTEEERQKKEDERARREFIRQEYMRRKQLKLMEDMDTVIKPRPQVVKQKKQRPKSIHRDHIESPKTPIKGPPVSSLSLASLNTGDNESVHSGKRTPRSESVEGFLSPSRCGSRNGEKDWENASTTSSVASGTEYTGPKLYKEPSAKSNKHIIQNALAHCCLAGKVNEGQKKKILEEMEKSDANNFLILFRDSGCQFRSLYTYCPETEEINKLTGIGPKSITKKMIEGLYKYNSDRKQFSHIPAKTLSASVDAITIHSHLWQTKRPVTPKKLLPTKA
For B3, the binding [4] was “binds”.
